{"source": "PubChem BioAssay AID504786 – Drosophila RNAi Screening Center – 2011", "screen": "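Positive regulators of HIF-driven reporter output in Drosophila cells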 (primary screen)", "cell system": "Drosophila S2 cells with a stable HIF luciferase reporter", "reagent": "long dsRNA against Drosophila genes, about 0.2 µg dsRNA per well of a 384-well plate", "duration": "three days of knock-down, then 20 h of DFO before reading", "conditions": "desferrioxamine (DFO) at 100 µM, an iron chelator that mimics hypoxia, for 20 h", "measured": "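Firefly luciferase driven by the mouse ldh-a hypoxia-response element, measured after 20 h of 100 µM DFO; z-scores per plate, higher means more signal lost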", "direction": "z-score: higher = stronger loss of HIF reporter signal", "note": "The screen tested about 21,000 reagents; below is a random part of those that have a named target and a result. 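Primary screen; positive scores mean lost reporter signal, so the sign may be inverted from the usual convention.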 A plus sign joins genes that one reagent is predicted to hit. Not all columns of the deposit are shown."}
{"target": "CG14720", "DRSC id": "DRSC14942", "z-score, replicate 1": -0.3}
{"target": "CG9624", "DRSC id": "DRSC16523", "z-score, replicate 1": -0.1}
{"target": "dally", "DRSC id": "DRSC08954", "z-score, replicate 1": -0.3}
{"target": "dally", "DRSC id": "DRSC11338", "z-score, replicate 1": -0.3}
{"target": "CG12607", "DRSC id": "DRSC08287", "z-score, replicate 1": -0.3}
{"target": "DhpD", "DRSC id": "DRSC12288", "z-score, replicate 1": -0.3}
{"target": "CG17549", "DRSC id": "DRSC02625", "z-score, replicate 1": -0.3}
{"target": "sage", "DRSC id": "DRSC14580", "z-score, replicate 1": -0.5}
{"target": "CG2691", "DRSC id": "DRSC19866", "z-score, replicate 1": 0.4}
{"target": "Ski6", "DRSC id": "DRSC02491", "z-score, replicate 1": -0.3}
{"target": "Idua", "DRSC id": "DRSC02941", "z-score, replicate 1": -0.3}
{"target": "RpL37-1", "DRSC id": "DRSC20149", "z-score, replicate 1": -0.2}
{"target": "CG4374", "DRSC id": "DRSC15570", "z-score, replicate 1": -0.5}
{"target": "CG5290", "DRSC id": "DRSC10501", "z-score, replicate 1": -0.4}
{"target": "Hers + amn", "DRSC id": "DRSC20306", "z-score, replicate 1": 0}
{"target": "Sou", "DRSC id": "DRSC04356", "z-score, replicate 1": -0.2}
{"target": "Klp68D", "DRSC id": "DRSC11206", "z-score, replicate 1": -0.2}
{"target": "Uqcc1 + CG9948", "DRSC id": "DRSC09690", "z-score, replicate 1": -0.2}
{"target": "CG10195", "DRSC id": "DRSC02026", "z-score, replicate 1": -0.3}
{"target": "Rip11", "DRSC id": "DRSC20000", "z-score, replicate 1": -0.3}
{"target": "Spn42Dc", "DRSC id": "DRSC05010", "z-score, replicate 1": -0.2}
{"target": "ImpE2", "DRSC id": "DRSC08665", "z-score, replicate 1": -0.3}
{"target": "CG31999", "DRSC id": "DRSC17131", "z-score, replicate 1": -0.3}
{"target": "CG31999", "DRSC id": "DRSC17133", "z-score, replicate 1": -0.3}
{"target": "okr", "DRSC id": "DRSC00834", "z-score, replicate 1": -0.4}
{"target": "side-VII", "DRSC id": "DRSC14578", "z-score, replicate 1": -0.3}
{"target": "HBS1", "DRSC id": "DRSC08544", "z-score, replicate 1": -0.3}

Looked up above:
For “z-score, replicate 1”, CG4374 [DRSC15570] shows -0.5
CG14720 [DRSC14942], z-score, replicate 1 = -0.3
